Measured values published in PubChem BioAssay AID493014 (National Center for Advancing Translational Sciences (NCATS), 2011).
Hit rate of the full screen: of about 340,000 compounds, about 170 (0.05%) were called active. The shares of active, inactive and inconclusive entries below differ from those in the screen. Calls follow the shape of the dose curve; as a rule, active = well fitted inhibition curve with a large enough effect in the signal ratio, with a control signal flat (not every such curve was filed as active); inconclusive = small, poorly fitted or top-dose-only effect, or effect the other way, or a change in a side signal; inactive = flat fitted curve, though single readings scatter; the % refers to the signal ratio. A potency beside an inconclusive call is a rough fit, not a confirmed value.

Test: qHTS Assay to Find Inhibitors of Chronic Active B-Cell Receptor Signaling;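 as to activity change, negative = inhibition: plate controls were basal doxycycline-induced cells for no effect and cells given 10 µM MG132 for full effect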
Conditions: ABC-DLBCL IkBa-CBG/CBR reporter, luminescence ratio (green luciferase fused to IkBa over red control in TMD8 lymphoma cells), 4 h; activity change, negative = inhibition: at 46.1 µM (top of the series)
Method in brief: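 Compounds up to 46 uM were incubated four hours with TMD8 cells whose green CBG68 luciferase is fused to IkappaBalpha; red CBR luminescence normalised the signal, and concentration-effect curves were fitted to fusion, red and ratio data.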
Potency is read from the fitted curve at half-maximal effect.

| SMILES | Potency | activity change, negative = inhibition |
| --- | --- | --- |
| O=C(Nc1nc2ccc(F)cc2s1)c1cccs1 | inconclusive: 7.94 µM [falling, partial curve] |  |
| CC(=O)c1ccc(-c2nc3ccccc3n2C)o1 |  | inconclusive: -7.43% |
| Cc1ccccc1NC(=O)/C(C#N)=C\c1cn(CC(=O)O)c2ccccc12 |  | inactive: -19.1% |
| COc1ccc(C(C)=O)cc1COC(=O)c1ccc2c(c1)OCCO2 |  | inconclusive: 1.46% |
| CN(C(=O)COC(=O)/C=C/c1ccc2ccccc2n1)c1c(N)n(Cc2ccccc2)c(=O)[nH]c1=O |  | inconclusive: -9.56% |
| CCOC(=O)/C=C1\SCC(=O)N1CC(=O)Nc1cc(S(=O)(=O)N(C)C)ccc1C |  | inactive: 1.01% |
| COc1ccc(C2N(c3ccc(Cl)cc3)N=C(C(C)=O)N(C)N2C(C)=O)cc1 (stereo not given) |  | inactive: -29.3% |
| CC(NC(=O)C1CCC(CNC(=O)[C@@H]2Cc3ccccc3CN2)CC1)c1ccccc1 (stereo not given in full) | inconclusive: 35.5 µM [rising, single point] |  |
| Cc1ccc(/C=C2/Sc3ccc(C(=O)NCc4ccccn4)cc3NC2=O)cc1 |  | inconclusive: -12.4% |
| Cc1cccc(C(=O)OCN2C(=O)c3ccccc3C2=O)c1[N+](=O)[O-] |  | inactive: 0.253% |
| COc1ccc(-c2noc(CSc3ccc(C)cc3)n2)cc1 |  | inconclusive: 12.6% |
| O=S(=O)(c1ccc2ncn(O)c2c1)N1CCOCC1 |  | inconclusive: -1.73% |
| CSCCC(NC(=O)c1ccc(Cl)cc1Cl)C(=O)OCC(N)=O (stereo not given) |  | inconclusive: -0.0517% |
| N#CNC1=NCN(Cc2ccccc2)CN1 |  | inconclusive: 5.95% |
| Cc1ccc(Nc2c(F)c(F)c(F)c(F)c2C(=O)O)c(C)c1 |  | inconclusive: 22.7% |
| O=C(CSCC(=O)N1CCN(c2ccccc2)CC1)Nc1nc(-c2ccc(Cl)s2)cs1 |  | inconclusive: 8.13% |
| COc1ccc(-n2ncc3c(N4CCC(C)CC4)ncnc32)cc1 |  | inconclusive: 11.7% |
| C(=C\c1ccccc1)/C=N/Nc1nncc(-c2ccccc2)n1 |  | inconclusive: 11.4% |
| COC(=O)[C@]1(CC(C)C)N[C@H](c2ccc(-c3ccc(Cl)c(Cl)c3)cc2)[C@@H]2C(=O)N(C)C(=O)[C@@H]21 |  | inactive: -8.47% |
| Cc1ccc(SCc2nc(N)nc(Nc3ccccc3C)n2)cc1C | inconclusive: 2.59 µM [falling, full curve, poor fit] |  |
| COc1ccc(C(=O)Nn2c(SCC(=O)NC3CCCCC3)nc3ccccc3c2=O)cc1 | inconclusive: 5.8 µM [falling, single point] |  |
| O=C(/C=C/c1ccccc1)NC(NC(=S)Nc1ccc(Cl)cc1Cl)C(Cl)(Cl)Cl (stereo not given) | inconclusive: 8.2 µM [rising, partial curve, poor fit] |  |
| CC(=O)Nc1ccc(/C(C)=N/NC(=O)c2ccncc2)cc1 |  | inconclusive: -26.5% |
| Cc1nn(C)cc1CN1CCCC(C(=O)c2ccc(-c3ccccc3)c(F)c2)C1 (stereo not given) |  | inconclusive: -26.7% |
| O=C(NCCCn1ccnc1)c1ccc(S(=O)(=O)Nc2ccccc2)cc1 |  | inconclusive: -2.03% |
| O=c1ccnc(SCn2nnc3ccccc3c2=O)[nH]1 |  | inconclusive: 13.8% |
| O=C1c2ccccc2C(=O)N1CCc1ccccn1 |  | inconclusive: 0.39% |
| CS(=O)(=O)Nc1ccc(S(=O)(=O)Nc2nccs2)cc1 |  | inconclusive: 1.65% |

| SMILES | Potency | activity change, negative = inhibition |
| --- | --- | --- |
| COc1ccccc1N(CC(O)COc1ccccc1)S(=O)(=O)c1ccccc1 (stereo not given) |  | inactive: 1.91% |
| CCOc1ccc(-n2c(=O)c3sccc3n(CC(=O)NCC3CCCO3)c2=O)cc1 (stereo not given) |  | inconclusive: -2.79% |
| COc1ccc(C(C)(C)C)cc1NC(=O)Nc1ccc2c(c1)OCO2 |  | inconclusive: 8.34% |
| Cc1ccc(C2C3=C(NCCN=C3c3ccccc3)C(=O)N2c2ccccc2)cc1 (stereo not given) |  | inconclusive: 11.1% |
| Cc1ccc(-c2cc(NC(=O)CSc3n[nH]c(N)n3)n(-c3ccccc3)n2)cc1 | inconclusive: 2.59 µM [rising, full curve, poor fit] |  |
| O=C(Nc1ccc(F)cc1F)N1CCCN(c2ccc(C(F)(F)F)cn2)CC1 |  | inactive: -3.9% |
| COC(=O)c1cc(=O)nc2sc(-c3ccccc3)nn12 |  | inactive: 2.2% |
| CCOc1ccc(CCNC(=O)c2cccc(N3CCCC3=O)c2)cc1OCC |  | inconclusive: 1.08% |
| c1ccc(CCNCCCOc2cccc3ccccc23)cc1 |  | inactive: -4.99% |
| COc1ccc(CNC(=O)CNC(C)c2ccc(F)cc2)cc1 (stereo not given) |  | inactive: -0.392% |
| CCOC(=O)c1c(-c2ccccc2)nc2c(C)cccn12 |  | inactive: 9.17% |
| O=C(Cn1nc(-c2ccccc2)c2ccccc2c1=O)NCCO |  | inconclusive: 0.107% |
| CCc1cc(-c2n[nH]c(=S)n2CC)cs1 |  | inconclusive: -6.97% |
| CCNc1ccc(C(=O)OCC(=O)NCc2ccccc2Cl)cc1[N+](=O)[O-] |  | inactive: -2.24% |
| COc1ccc2cc(C#N)c(SCC(=O)N3CCCC3)nc2c1 |  | inactive: 1.86% |
| CCCCNc1c([N+](=O)[O-])cc(C(=O)O)cc1[N+](=O)[O-] |  | inactive: 8.87% |
| CCOc1ccc2[nH]c3c(NCCO)ncnc3c2c1 |  | inactive: 10.8% |
| COc1ccc(CCN(C)CCC(=O)Nc2cccc(C)c2)cc1OC |  | inconclusive: -22.7% |
| COc1ccc(OC)c(NC(=S)Nc2ccccc2)c1 |  | inconclusive: 5.04% |
| COc1ccccc1NS(=O)(=O)c1cccs1 | inconclusive: 4.11 µM [falling, full curve, poor fit] |  |
| CCN(CC)CCCN(Cc1cc2cc3c(cc2[nH]c1=O)OCO3)C(=S)NCCCN(C)C |  | inconclusive: -4.76% |
| O=C(O)c1ccc(-n2nc(C(F)(F)F)c3c2-c2ccoc2CC3)cc1 |  | inconclusive: -4.91% |
| Cc1ccc(N=C2NC(=O)CS2)cc1C |  | inconclusive: 4.12% |
| CCCCN(C(=S)NC(=O)c1cc(OC)c(OC)c(OC)c1)c1c(N)n(Cc2ccccc2)c(=O)[nH]c1=O |  | inconclusive: 0.396% |
| Cc1nn(C)c(C(=O)Nc2ccc(S(=O)(=O)NC34CC5CC(CC(C5)C3)C4)cc2)c1Br |  | inconclusive: 16.5% |
| COC(=O)Nc1sc2c(c1C(=O)NCc1ccco1)CCC2 |  | inconclusive: 5.11% |
| O=C(OCc1nnc(-c2ccccc2)o1)C1=COCCO1 |  | inconclusive: 1.84% |

Whole records as entered above.
COC(=O)c1cc(=O)nc2sc(-c3ccccc3)nn12 in the list: activity change, negative = inhibition: inactive: 2.2%
CCc1cc(-c2n[nH]c(=S)n2CC)cs1 in the list: activity change, negative = inhibition: inconclusive: -6.97%
Cc1ccc(N=C2NC(=O)CS2)cc1C in the list: activity change, negative = inhibition: inconclusive: 4.12%
